# Assay results from the supplement of paper PMC8728848.
# The other results are listed elsewhere or left out.
# How the values were obtained:
# Experiment in all cases: glycan array binding signal (z-score within array); higher = stronger binding
# Conditions in all cases: glycan notation: IUPAC condensed, linker removed
# [1] = target: Fuc(a1-3)GlcNAc
# In short: (§1)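 The Consortium for Functional Glycomics database supplied 3228 glycan arrays, of which those lacking an available protein sequence were dropped. The binding signal, a within-array Z-score, was averaged across arrays of the same protein sequence and across linkers. Negative scores can be read as non-binding.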
# [2] = target: Fuc(a1-3)[Gal(b1-4)]Glc6S
# In short: as §1
# [3] = target: Fuc(a1-3)[Gal(b1-4)]GlcNAc
# In short: as §1
# [4] = target: Fuc(a1-3)[Gal(b1-4)]GlcNAc(b1-2)Man
# In short: as §1
# [5] = target: Fuc(a1-3)[Gal(b1-4)]GlcNAc(b1-2)Man(a1-3)[Fuc(a1-3)[Gal(b1-4)]GlcNAc(b1-2)Man(a1-6)]Man(b1-4)GlcNAc(b1-4)GlcNAc
# In short: as §1
# [6] = target: Fuc(a1-3)[Gal(b1-4)]GlcNAc(b1-2)Man(a1-3)[Fuc(a1-3)[Gal(b1-4)]GlcNAc(b1-2)Man(a1-6)]Man(b1-4)GlcNAc(b1-4)[Fuc(a1-6)]GlcNAc
# In short: as §1
# [7] = target: Fuc(a1-3)[Gal(b1-4)]GlcNAc(b1-3)Gal(b1-3)[Fuc(a1-4)]GlcNAc
# In short: as §1
# [8] = target: Fuc(a1-3)[Gal(b1-4)]GlcNAc(b1-3)Gal(b1-4)[Fuc(a1-3)]GlcNAc
# In short: as §1
# [9] = target: Fuc(a1-3)[Gal(b1-4)]GlcNAc(b1-3)Gal(b1-4)[Fuc(a1-3)]GlcNAc(b1-3)Gal(b1-4)[Fuc(a1-3)]GlcNAc
# In short: as §1
# [10] = target: Fuc(a1-3)[Gal(b1-4)]GlcNAc(b1-3)GalNAc
# In short: as §1
# [11] = target: Fuc(a1-3)[Gal(b1-4)]GlcNAc(b1-6)GalNAc
# In short: as §1
# [12] = target: Fuc(a1-3)[Gal(b1-4)]GlcNAc(b1-6)[Gal(b1-3)GlcNAc(b1-3)]Gal(b1-4)Glc
# In short: as §1
# [13] = target: Fuc(a1-3)[Gal(b1-4)]GlcNAc6S
# In short: as §1
# [14] = target: Fuc(a1-3)[Gal3S(b1-4)]Glc
# In short: as §1
# [15] = target: Fuc(a1-3)[Gal3S(b1-4)]GlcNAc
# In short: as §1
# [16] = target: Fuc(a1-3)[Gal3S(b1-4)]GlcNAc6S
# In short: as §1
# [17] = target: Fuc(a1-3)[GalNAc(b1-4)]GlcNAc
# In short: as §1
# [18] = target: Fuc(a1-3)[GalNAc(b1-4)]GlcNAc6S
# In short: as §1
# [19] = target: Fuc(a1-4)GlcNAc
# In short: as §1
# [20] = target: Fuc(b1-3)GlcNAc
# In short: as §1
# [21] = target: Gal(a1-2)Gal
# In short: as §1
# [22] = target: Gal(a1-3)Gal
# In short: as §1
# [23] = target: Gal(a1-3)Gal(b1-3)GlcNAc
# In short: as §1
# [24] = target: Gal(a1-3)Gal(b1-3)GlcNAc(b1-2)Man
# In short: as §1
# [25] = target: Gal(a1-3)Gal(b1-3)GlcNAc(b1-2)Man(a1-3)[Gal(a1-3)Gal(b1-3)GlcNAc(b1-2)Man(a1-6)]Man(b1-4)GlcNAc(b1-4)GlcNAc
# In short: as §1
# [26] = target: Gal(a1-3)Gal(b1-3)GlcNAc(b1-3)GalNAc
# In short: as §1
# [27] = target: Gal(a1-3)Gal(b1-3)GlcNAc(b1-6)GalNAc
# In short: as §1
# [28] = target: Gal(a1-3)Gal(b1-3)[Fuc(a1-4)]GlcNAc(b1-2)Man(a1-3)[Gal(a1-3)Gal(b1-3)[Fuc(a1-4)]GlcNAc(b1-2)Man(a1-6)]Man(b1-4)GlcNAc(b1-4)GlcNAc
# In short: as §1
# [29] = target: Gal(a1-3)Gal(b1-4)Glc
# In short: as §1
# [30] = target: Gal(a1-3)Gal(b1-4)GlcNAc
# In short: as §1
# [31] = target: Gal(a1-3)Gal(b1-4)GlcNAc(b1-2)Man
# In short: as §1
# [32] = target: Gal(a1-3)Gal(b1-4)GlcNAc(b1-2)Man(a1-3)[Gal(a1-3)Gal(b1-4)GlcNAc(b1-2)Man(a1-6)]Man(b1-4)GlcNAc(b1-4)GlcNAc
# In short: as §1
# [33] = target: Gal(a1-3)Gal(b1-4)GlcNAc(b1-3)GalNAc
# In short: as §1
# [34] = target: Gal(a1-3)Gal(b1-4)GlcNAc(b1-6)GalNAc
# In short: as §1
# [35] = target: Gal(a1-3)Gal(b1-4)[Fuc(a1-3)]GlcNAc
# In short: as §1
# [36] = target: Gal(a1-3)Gal(b1-4)[Fuc(a1-3)]GlcNAc(b1-2)Man(a1-3)[Gal(a1-3)Gal(b1-4)[Fuc(a1-3)]GlcNAc(b1-2)Man(a1-6)]Man(b1-4)GlcNAc(b1-4)GlcNAc
# In short: as §1
# [37] = target: Gal(a1-3)GalNAc
# In short: as §1
binder,measurement,setting,value
GS13971A-bth-447-22-447 (Bacteroides thetaiotaomicron) (protein) EDVDNERSKGMFSASQSGFSTIEVYDLGPLNKIDLSIAKAGLEDTGGTVTFSVEQSLLDSLNNADGTSYQLLPPECYTIENATYSVSPGGDRRVTGGSLVYDPHKIYNLCGFDELKYVLPLRVSSTGTPMNSDRTATLYGFIVKEAIVRLASTGGDFVVEGGTTTSPMNLDTEISFENEWDLTTSFATKGADYVDNYNSANSTYYIPLPSDFYTLPDVTIAKGKTTGGSAISLLGETLPPGNYLLPVSLGGLSGQGDASINIDKETVANYFVIKQGGPINRDHWTVTANTEEKTGEVSAAYPHNGQTISLIDGEINTFWHSKWQGGEVAPPYEIILDMGKENSVSQLGLIARQNALTSMNLEIYAGDDGETWNLIGKYFFDGSIKTEQMVPVKACDARWIRIYIPTLGSGSSVGHLAEIYVYGTDK,glycan array binding signal (z-score),[1],-1.12
same,glycan array binding signal (z-score),[2],-0.214
same,glycan array binding signal (z-score),[3],0.548
same,glycan array binding signal (z-score),[4],0.16
same,glycan array binding signal (z-score),[5],1.48
same,glycan array binding signal (z-score),[6],-0.249
same,glycan array binding signal (z-score),[7],-0.356
same,glycan array binding signal (z-score),[8],0.491
same,glycan array binding signal (z-score),[9],-0.284
same,glycan array binding signal (z-score),[10],0.484
same,glycan array binding signal (z-score),[11],0.414
same,glycan array binding signal (z-score),[12],-1.51
same,glycan array binding signal (z-score),[13],-0.084
same,glycan array binding signal (z-score),[14],0.389
same,glycan array binding signal (z-score),[15],-0.59
same,glycan array binding signal (z-score),[16],-0.045
same,glycan array binding signal (z-score),[17],-0.203
same,glycan array binding signal (z-score),[18],0.133
same,glycan array binding signal (z-score),[19],12.2
same,glycan array binding signal (z-score),[20],-1.09
same,glycan array binding signal (z-score),[21],0.221
same,glycan array binding signal (z-score),[22],0.937
same,glycan array binding signal (z-score),[23],-0.382
same,glycan array binding signal (z-score),[24],0.006
same,glycan array binding signal (z-score),[25],-0.916
same,glycan array binding signal (z-score),[26],-0.436
same,glycan array binding signal (z-score),[27],-0.632
same,glycan array binding signal (z-score),[28],0.437
same,glycan array binding signal (z-score),[29],0.174
same,glycan array binding signal (z-score),[30],-1.02
same,glycan array binding signal (z-score),[31],-0.148
same,glycan array binding signal (z-score),[32],0.313
same,glycan array binding signal (z-score),[33],0.741
same,glycan array binding signal (z-score),[34],-0.373
same,glycan array binding signal (z-score),[35],0.076
same,glycan array binding signal (z-score),[36],0.646
same,glycan array binding signal (z-score),[37],-0.362

# At a glance, part of the list above:
binder,measurement,setting,value
GS13971A-bth-447-22-447 (Bacteroides thetaiotaomicron) (protein) EDVDNERSKGMFSASQSGFSTIEVYDLGPLNKIDLSIAKAGLEDTGGTVTFSVEQSLLDSLNNADGTSYQLLPPECYTIENATYSVSPGGDRRVTGGSLVYDPHKIYNLCGFDELKYVLPLRVSSTGTPMNSDRTATLYGFIVKEAIVRLASTGGDFVVEGGTTTSPMNLDTEISFENEWDLTTSFATKGADYVDNYNSANSTYYIPLPSDFYTLPDVTIAKGKTTGGSAISLLGETLPPGNYLLPVSLGGLSGQGDASINIDKETVANYFVIKQGGPINRDHWTVTANTEEKTGEVSAAYPHNGQTISLIDGEINTFWHSKWQGGEVAPPYEIILDMGKENSVSQLGLIARQNALTSMNLEIYAGDDGETWNLIGKYFFDGSIKTEQMVPVKACDARWIRIYIPTLGSGSSVGHLAEIYVYGTDK,glycan array binding signal (z-score),[21],0.221
same,glycan array binding signal (z-score),[22],0.937
same,glycan array binding signal (z-score),[23],-0.382
same,glycan array binding signal (z-score),[24],0.006
same,glycan array binding signal (z-score),[25],-0.916
same,glycan array binding signal (z-score),[26],-0.436
same,glycan array binding signal (z-score),[27],-0.632
